# Measured values from patent US20130102535A1, “Method for Preventing Myocardial Ischemia” (Shanghai Bajiayi Pharmaceutical Science and Technology Co. …, priority 2009, published 2013).
# Tested on: rat myocardial ischemia models induced by coronary artery ligation
# Assay: Myocardial infarction area of rats after coronary artery ligation (N-BT staining)
# Type: in vivo, Sprague-Dawley male rats
# Conditions: 5 hours after coronary artery ligation, x ± SD
# Source text: Sprague-Dawley male rats of clean grade weighting 200-220 g were supplied by the animal experimental center of the Second Military Medical University (license number: SCXK (Shanghai)-2007-0003). • 2.1.2 Experimental groups
# Experimental rats were randomly divided into four groups: sham group: n=8, model group: n=9, MLIF low-dose group: n=11, MLIF high-dose group: n=12. The dose of medicine could be administrated according to rat body weight. MLIF low-dose group and MLIF high-dose group were administrated by tail intravenous injection prepared with normal saline as solvent at the dose of 0.15 mg/kg and 0.5 mg/kg, respectively. • 2.1.3 Coronary artery ligation and measurement of myocardial infarction area of rats
# The Sprague-Dawley male rats were abdomen anesthetized with 25% urethane (0.4 ml/100 g) and fixated at supine position. The chest was cut open among the fifth rib at left, and then the fourth and fifth ribs were cut off along the left side of sterna at 2 mm. The pericardium was snipped off with heart exposed, and a 0/3 suture line was passed through the left anterior descending coronary artery. The rats were administrated by tail intravenous injection slowly. After 10 minutes, the left anterior descending coronary artery was ligated rapidly and the heart was returned to its chest, removing the air within the thorax by hand, closing the thorax and tightening the purse-string suture rapidly. The entire process of opening and closing chest was performed within 30 seconds. The coronary arteries of rats of sham group were not ligated since the myocardial ischemia would be caused by coronary artery ligation.
# The rats were administrated by tail intravenous injection with the dose of 0.15 mg/kg (MLIF low-dose group) and 0.5 mg/kg (MLIF high-dose group) at 15 minutes after coronary artery ligation with the same volume of normal saline administrated in sham group and model group. Each group of animals was executed at 5 hours after coronary artery ligation. The heart was taken out and the heart ventricle muscle was transversely chipped into 5 slices, the cut position of which was parallel to coronary sulcus under the coronary artery ligation line. The five slices of the heart ventricle muscle were stained with Nitroblue tetrazolium (N-BT) for 15 minutes with shaking. […] The area of myocardial infarction was isolated by a dissecting microscope and the whole heart weight, the left ventricle weight and the area of myocardial infarction weight were weighed, respectively, the percent (%) of area of myocardial infarction weight to whole heart weight were quantified as an measure on myocardial infarction area ranges. • 2.1.4 Data and statistics analysis
# All experimental data are given as x±SD. Differences between the groups were calculated by analysis of variance (SPSS 10.0).
# [1] = MLIF high-dose group 0.5 mg/kg tail i.v.
# [2] = MLIF low-dose group 0.15 mg/kg tail i.v.
substance,measurement,setting,value
Met-Gln-Cys-Asn-Ser (MQCNS) [MLIF],left ventricle weight,[1],526 ± 31.5 mg
same,whole heart weight,[1],779 ± 51.2 mg
same,left ventricle weight,[2],566 ± 48.1 mg
same,whole heart weight,[2],832 ± 63.5 mg
